# Laboratory results taken from US20220287995A1, “COMPOSITIONS AND METHODS FOR INHIBITING BACTERIAL VIRULENCE AND FLIM-BASED DEVICE AND METHOD FOR ANTIBIOTIC SUSCEPTIBILITY TESTING” (THE REGENTS OF THE UNIVERSITY OF CALIFORNIA, priority 2019, published 2022).
# For at least one compound, name, drawing or mass did not settle the structure.
# Assays:
# Type in all cases: cell-based, Pseudomonas aeruginosa
# P. aeruginosa [1] = assay: Fluorescence lifetime imaging microscopy (FLIM) phasor g-values of P. aeruginosa
# Description: Fluorescence lifetime measurements were performed using a custom-built multiphoton microscope setup based on an Olympus FV1000 system and an Olympus IX81 microscope (Olympus, Waltham, Mass.) as described previously (68). The FLIM microscope uses an 80 MHz ultrafast Ti:Sapphire Mai Tai laser (Spectra-physics, Santa Clara, Calif.) set at 740 nm for mulitphoton excitation. The setup used a 690-nm SP dichroic-460/80 nm filter pair for separating emission and a PlanApo N Olympus oil immersion 60× (1.42 NA) objective (Olympus, Waltham, Mass.), which is capable of bacterial single-cell resolution imaging. An H7422P-40 photomultiplier tube module (Hamamatsu, Bridgewater, N.J.) and A320 FastFLIM Box (ISS, Champaign, Ill.) were used to measure fluorescence lifetime. Image acquisition was controlled by SimFCS software version 4 (64-bit) (Laboratory for Fluorescence Dynamics, Irvine, Calif.). […]
# Masks for bacterial cells were created through SimFCS using fluorescence intensity images and image intensity thresholding (FIG. 11B). Fluorescence lifetimes within the masked areas were transformed using
# The microscope was calibrated before each session by setting the fluorescence lifetime obtained for 10 μM rhodamine 110 (Sigma, St. Louis, Mo.) to 4.0 ns. […] Sub-cellular fluorescence lifetimes (FIG. 1A) were collected using the 20× digital zoom mode at a rate of 1.7 sec/frame. […]
# P. aeruginosa [2] = assay: Colorimetric enzyme-cycling assay of NADH and NAD+ concentrations; conditions: surface-attached
# Description: The concentrations of reduced and oxidized nicotinamide adenine dinucleotide (NADH, NAD^+) were measured using a colorimetric enzyme-cycling assay as described previously (45). P. aeruginosa strains were cultured overnight in PS:DB, diluted 1:100 into 60×15 mm plastic petri dishes (Corning, Corning, N.Y.) containing the same medium, and grown for 4 to 6 hours. Alternatively, strains were cultured overnight in minimal medium, diluted 1:100 into plastic petri dishes containing modified minimal medium with single carbon sources, and grown to an OD600 of 0.2. […]
# Planktonic cells were isolated from petri dishes, pelleted by centrifugation at 16,000×g for 1 min, the residual supernatant was discarded and the pellet was immediately resuspended in 0.2 M NaOH or HCl to extract NADH or NAD^+, respectively, as described previously (45, 46). […] Solutions were incubated at 37° C. for 30 min and measured for absorbance at 562 nm. […]
# NADH and NAD^+ concentrations were determined by following the protocol described previously (45). […] The centrifugation and absorbance measurements were performed outside of the glove box. The absorbance per unit time was determined by fitting data on the initial velocity of enzyme activity, acquired between 2 to 10 minutes of the absorbance measurements. […]
# P. aeruginosa [3] = assay: Surface density measurement of P. aeruginosa from virulence assays; conditions: virulence assays after 6 hours of growth, carbon source 0.2%
# Description: The density of P. aeruginosa cells on surface was measured as described previously (1) using amoebae cell viability phase contrast images that were acquired using a 10× or 20× objective. The IJ_Isodata algorithm (ImageJ 1.52q) was applied to phase contrast images to construct cell boundary masks. The cell density was computed by dividing the area covered by P. aeruginosa by the total area of the image.
# [4] = test system: surface-attached P. aeruginosa; assay: Image-based virulence (host killing) assay with amoeba host cells and calcein-AM; conditions: surface-attached wild-type P. aeruginosa in rich (PS:DB) medium, supplemented at 3 hours at 0.2%, assessed after 6 hours of growth; amoeba host cells
# Description: P. aeruginosa cells were assayed using an image-based virulence assay as described previously (12, 50). P. aeruginosa strains were cultured in PS:DB, diluted 1:100 into 60×15 mm plastic petri dishes (Corning, Corning, N.Y.), cultured for 4 to 6 hours by shaking at 100 rpm, and harvested. Planktonic cells were assayed by transferring 10 μL of culture from the petri dish to a new petri dish, mixing with an equal volume of D. discoideum that were grown to an OD600 of 0.2-0.5, and immobilizing by placing an agar pad on top of the mixture (FIG. 11C). […] The immobilized planktonic or surface-attached P. aeruginosa and D. discoideum were incubated at room temperature for 1 hour and imaged using fluorescence microscopy. The host killing index (12, 50) was computed as the average ratio of calcein-AM fluorescence to cell area in individual amoeba cells for 30 to 200 cells in each experiment. […]
# For experiments in which strains cultured in PS:DB were supplemented with individual carbon sources (FIG. 5A-D), pyruvic acid, citric acid, […], glycerol, or glucose was added to cultures at a final concentration of 0.2% at 3 hours following a 1:100 dilution from an overnight culture. Cultures were harvested after 1 additional hour of growth for measurements of fluorescence lifetime and NADH and NAD^+ concentrations. […]
smiles,measurement,setting,value
CC(=O)C(=O)O [pyruvate],enzyme-bound NADH pool,P. aeruginosa [1]; surface-attached P. aeruginosa treated with carbon source,decreased
same,fluorescence lifetime g-value,"P. aeruginosa [1]; surface-attached, modified minimal medium, single carbon source at 0.2%",smallest g-value
same,NADH/NAD+ ratio,"P. aeruginosa [2]; modified minimal medium, single carbon source at 0.2%, mid-exponential phase",smallest ratio
same,change in total NAD(H) production,"P. aeruginosa [2]; rich (PS:DB) medium, carbon source 0.2% added at 3 hours, harvested after 1 additional hour",decreased
same,surface density of P. aeruginosa,P. aeruginosa [3],did not decrease the surface density
same,host-killing activity (host killing index),[4],abolished host-killing activity
